# Values of other authors in patent US8073633B2 (The Invention Science Fund I, LLC, priority 2008, dated 2011).
# Conditions: plasma concentration
structure (smiles),measurement,value
CN(C)CCOC(c1ccccc1)c1ccccc1 [diphenhydramine],plasma levels that correlate with a sedative effect,greater than 50 ng/ml
